# According to the supplement of paper PMC11006884:
# Chains of the proteins cited; added tags and fusions are not shown. Lines headed by an entry give the natural chain unless they say otherwise; changes in a name come on top.
# UniProt O43776: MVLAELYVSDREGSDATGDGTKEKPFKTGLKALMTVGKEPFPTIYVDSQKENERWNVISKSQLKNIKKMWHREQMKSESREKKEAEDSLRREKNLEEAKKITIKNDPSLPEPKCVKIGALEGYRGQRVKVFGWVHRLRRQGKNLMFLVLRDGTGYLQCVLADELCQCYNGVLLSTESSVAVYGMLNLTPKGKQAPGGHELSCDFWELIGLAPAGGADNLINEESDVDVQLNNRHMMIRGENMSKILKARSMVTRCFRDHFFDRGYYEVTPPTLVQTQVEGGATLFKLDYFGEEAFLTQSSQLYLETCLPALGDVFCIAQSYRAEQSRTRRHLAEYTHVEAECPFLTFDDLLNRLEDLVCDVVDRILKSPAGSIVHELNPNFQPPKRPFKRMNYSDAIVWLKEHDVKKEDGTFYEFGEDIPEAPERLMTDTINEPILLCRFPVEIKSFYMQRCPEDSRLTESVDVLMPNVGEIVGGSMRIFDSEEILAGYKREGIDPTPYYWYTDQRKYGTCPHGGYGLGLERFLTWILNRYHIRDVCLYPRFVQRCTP
# UniProt O75351, whole entry: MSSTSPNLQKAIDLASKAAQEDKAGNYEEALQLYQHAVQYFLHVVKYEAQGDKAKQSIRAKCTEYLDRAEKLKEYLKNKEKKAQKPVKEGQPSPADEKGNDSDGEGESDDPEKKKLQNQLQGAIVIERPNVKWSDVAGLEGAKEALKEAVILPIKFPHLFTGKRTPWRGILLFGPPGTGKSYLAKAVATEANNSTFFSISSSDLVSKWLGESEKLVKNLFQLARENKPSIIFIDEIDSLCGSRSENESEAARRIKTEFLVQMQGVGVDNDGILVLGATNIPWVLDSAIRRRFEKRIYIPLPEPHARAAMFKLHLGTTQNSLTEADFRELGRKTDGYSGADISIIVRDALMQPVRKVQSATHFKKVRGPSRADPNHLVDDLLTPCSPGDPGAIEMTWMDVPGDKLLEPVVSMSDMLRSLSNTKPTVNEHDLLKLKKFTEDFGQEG
# UniProt O76003: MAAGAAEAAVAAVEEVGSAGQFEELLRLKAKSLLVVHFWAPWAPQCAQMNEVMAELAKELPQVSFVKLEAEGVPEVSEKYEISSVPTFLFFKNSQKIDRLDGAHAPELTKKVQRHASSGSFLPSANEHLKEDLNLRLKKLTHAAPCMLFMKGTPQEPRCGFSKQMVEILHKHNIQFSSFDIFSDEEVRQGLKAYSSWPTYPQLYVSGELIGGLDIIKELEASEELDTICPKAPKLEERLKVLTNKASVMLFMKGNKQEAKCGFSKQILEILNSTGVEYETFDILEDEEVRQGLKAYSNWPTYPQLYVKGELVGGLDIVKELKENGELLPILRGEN
# UniProt O60568: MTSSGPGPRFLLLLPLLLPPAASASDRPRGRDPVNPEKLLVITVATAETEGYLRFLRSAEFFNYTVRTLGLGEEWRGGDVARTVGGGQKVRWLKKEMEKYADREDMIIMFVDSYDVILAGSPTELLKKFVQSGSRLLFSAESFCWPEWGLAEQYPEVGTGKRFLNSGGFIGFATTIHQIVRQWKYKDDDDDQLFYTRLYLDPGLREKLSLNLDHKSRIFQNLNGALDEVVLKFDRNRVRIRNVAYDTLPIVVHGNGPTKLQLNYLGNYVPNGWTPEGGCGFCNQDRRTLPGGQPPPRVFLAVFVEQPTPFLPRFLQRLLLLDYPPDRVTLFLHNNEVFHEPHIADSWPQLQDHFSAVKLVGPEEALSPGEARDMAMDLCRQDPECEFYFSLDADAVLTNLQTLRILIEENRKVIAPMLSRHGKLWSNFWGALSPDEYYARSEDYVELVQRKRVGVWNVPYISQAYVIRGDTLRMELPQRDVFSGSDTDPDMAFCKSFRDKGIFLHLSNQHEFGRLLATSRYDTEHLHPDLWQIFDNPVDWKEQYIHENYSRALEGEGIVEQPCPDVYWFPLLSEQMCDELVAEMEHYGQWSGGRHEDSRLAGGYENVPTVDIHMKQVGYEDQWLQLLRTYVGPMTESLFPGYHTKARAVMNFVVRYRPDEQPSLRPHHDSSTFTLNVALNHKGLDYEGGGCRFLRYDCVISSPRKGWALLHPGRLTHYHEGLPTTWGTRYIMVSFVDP
# UniProt O60841: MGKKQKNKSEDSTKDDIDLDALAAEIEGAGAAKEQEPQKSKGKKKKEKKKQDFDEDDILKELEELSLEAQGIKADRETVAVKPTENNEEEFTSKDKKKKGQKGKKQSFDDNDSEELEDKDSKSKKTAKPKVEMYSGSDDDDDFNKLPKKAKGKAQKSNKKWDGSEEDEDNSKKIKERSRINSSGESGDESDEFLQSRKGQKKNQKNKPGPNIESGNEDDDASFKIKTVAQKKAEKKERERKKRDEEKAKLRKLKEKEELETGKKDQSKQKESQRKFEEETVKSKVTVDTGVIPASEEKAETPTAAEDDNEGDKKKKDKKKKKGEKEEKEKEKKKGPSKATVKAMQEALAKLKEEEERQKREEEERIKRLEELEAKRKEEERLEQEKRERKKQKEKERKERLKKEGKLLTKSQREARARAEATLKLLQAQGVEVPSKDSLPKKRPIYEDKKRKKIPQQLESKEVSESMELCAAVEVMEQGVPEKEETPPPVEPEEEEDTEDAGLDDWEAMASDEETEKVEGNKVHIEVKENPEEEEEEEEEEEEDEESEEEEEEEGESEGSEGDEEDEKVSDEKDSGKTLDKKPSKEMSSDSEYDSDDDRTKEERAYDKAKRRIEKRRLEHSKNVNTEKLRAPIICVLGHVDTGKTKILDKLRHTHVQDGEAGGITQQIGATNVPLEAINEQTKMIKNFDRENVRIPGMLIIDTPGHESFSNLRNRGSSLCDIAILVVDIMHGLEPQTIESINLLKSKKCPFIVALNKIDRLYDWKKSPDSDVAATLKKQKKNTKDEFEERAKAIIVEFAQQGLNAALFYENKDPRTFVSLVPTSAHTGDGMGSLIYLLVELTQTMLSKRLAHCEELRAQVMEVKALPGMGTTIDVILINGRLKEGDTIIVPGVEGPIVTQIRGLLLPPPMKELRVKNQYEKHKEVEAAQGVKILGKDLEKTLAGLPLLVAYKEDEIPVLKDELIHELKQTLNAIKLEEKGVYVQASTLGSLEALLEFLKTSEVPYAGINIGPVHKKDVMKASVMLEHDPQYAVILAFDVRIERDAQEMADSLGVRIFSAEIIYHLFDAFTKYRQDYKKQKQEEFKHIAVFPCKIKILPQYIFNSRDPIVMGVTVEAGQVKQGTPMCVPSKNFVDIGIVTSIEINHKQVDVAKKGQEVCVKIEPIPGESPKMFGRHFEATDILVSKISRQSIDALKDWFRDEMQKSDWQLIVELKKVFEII
# UniProt O75369, whole entry, looked up: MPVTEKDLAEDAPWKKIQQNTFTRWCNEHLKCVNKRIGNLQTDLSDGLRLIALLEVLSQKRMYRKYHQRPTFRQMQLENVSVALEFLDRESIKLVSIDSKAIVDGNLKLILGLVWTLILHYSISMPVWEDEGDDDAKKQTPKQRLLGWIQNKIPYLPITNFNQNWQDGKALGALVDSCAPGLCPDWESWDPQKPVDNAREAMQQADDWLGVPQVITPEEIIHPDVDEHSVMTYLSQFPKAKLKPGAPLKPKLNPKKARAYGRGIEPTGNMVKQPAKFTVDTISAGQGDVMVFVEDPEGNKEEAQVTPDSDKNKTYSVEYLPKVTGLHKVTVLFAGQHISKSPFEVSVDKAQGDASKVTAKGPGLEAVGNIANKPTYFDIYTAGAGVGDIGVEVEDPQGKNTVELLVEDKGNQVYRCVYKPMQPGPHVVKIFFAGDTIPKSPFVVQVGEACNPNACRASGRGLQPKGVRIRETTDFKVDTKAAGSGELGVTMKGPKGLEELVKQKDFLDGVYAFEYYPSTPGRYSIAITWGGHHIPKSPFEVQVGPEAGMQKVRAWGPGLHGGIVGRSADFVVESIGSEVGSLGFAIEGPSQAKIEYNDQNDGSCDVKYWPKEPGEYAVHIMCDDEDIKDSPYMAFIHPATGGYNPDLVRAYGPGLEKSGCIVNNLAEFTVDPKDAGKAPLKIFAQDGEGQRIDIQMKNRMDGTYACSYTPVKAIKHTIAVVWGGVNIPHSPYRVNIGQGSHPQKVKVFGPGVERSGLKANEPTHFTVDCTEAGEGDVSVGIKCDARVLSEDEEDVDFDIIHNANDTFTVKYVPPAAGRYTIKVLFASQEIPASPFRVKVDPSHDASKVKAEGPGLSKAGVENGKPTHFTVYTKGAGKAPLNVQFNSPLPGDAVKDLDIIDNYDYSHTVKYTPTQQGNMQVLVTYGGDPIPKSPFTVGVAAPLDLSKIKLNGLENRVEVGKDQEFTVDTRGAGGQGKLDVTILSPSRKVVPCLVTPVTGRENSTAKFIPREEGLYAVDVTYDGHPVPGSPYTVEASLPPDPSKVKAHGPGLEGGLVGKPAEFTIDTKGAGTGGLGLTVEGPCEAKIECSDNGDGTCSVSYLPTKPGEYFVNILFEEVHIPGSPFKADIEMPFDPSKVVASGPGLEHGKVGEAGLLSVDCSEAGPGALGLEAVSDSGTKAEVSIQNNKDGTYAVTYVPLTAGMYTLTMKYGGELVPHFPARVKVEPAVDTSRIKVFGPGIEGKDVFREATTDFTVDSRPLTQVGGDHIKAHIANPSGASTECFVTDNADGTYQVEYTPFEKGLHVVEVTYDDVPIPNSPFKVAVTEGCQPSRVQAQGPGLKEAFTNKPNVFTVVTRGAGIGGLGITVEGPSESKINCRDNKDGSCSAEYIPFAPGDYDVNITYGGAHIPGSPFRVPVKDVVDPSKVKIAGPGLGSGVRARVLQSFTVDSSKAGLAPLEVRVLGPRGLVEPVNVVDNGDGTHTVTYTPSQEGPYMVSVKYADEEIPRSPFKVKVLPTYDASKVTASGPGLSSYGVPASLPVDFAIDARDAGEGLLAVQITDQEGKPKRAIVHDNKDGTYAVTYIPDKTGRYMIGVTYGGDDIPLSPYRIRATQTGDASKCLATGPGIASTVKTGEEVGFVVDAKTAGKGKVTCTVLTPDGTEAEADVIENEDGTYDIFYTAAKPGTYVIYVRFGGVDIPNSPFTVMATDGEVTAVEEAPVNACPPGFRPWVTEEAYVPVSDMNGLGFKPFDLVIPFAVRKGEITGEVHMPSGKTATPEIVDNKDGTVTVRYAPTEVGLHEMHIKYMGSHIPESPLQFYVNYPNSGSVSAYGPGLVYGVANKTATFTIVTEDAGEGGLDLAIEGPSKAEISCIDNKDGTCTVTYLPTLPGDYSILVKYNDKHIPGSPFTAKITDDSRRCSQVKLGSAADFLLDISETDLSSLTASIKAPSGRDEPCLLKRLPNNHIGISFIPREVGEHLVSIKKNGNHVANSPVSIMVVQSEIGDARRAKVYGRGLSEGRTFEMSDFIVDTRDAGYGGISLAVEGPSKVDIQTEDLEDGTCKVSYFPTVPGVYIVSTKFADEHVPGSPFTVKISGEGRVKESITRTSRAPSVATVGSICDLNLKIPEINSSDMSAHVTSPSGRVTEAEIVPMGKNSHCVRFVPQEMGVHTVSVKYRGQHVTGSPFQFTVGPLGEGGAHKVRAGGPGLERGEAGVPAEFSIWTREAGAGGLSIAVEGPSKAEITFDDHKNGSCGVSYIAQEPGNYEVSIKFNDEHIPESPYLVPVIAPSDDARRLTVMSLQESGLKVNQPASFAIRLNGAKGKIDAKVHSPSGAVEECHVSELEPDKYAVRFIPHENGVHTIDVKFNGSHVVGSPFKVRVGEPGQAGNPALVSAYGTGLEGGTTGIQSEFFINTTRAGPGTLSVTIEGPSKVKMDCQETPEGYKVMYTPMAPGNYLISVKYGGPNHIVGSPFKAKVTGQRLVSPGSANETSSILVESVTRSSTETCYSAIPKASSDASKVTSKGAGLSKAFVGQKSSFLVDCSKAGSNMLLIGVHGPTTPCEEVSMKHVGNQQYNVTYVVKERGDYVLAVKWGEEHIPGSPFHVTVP
# UniProt O75131: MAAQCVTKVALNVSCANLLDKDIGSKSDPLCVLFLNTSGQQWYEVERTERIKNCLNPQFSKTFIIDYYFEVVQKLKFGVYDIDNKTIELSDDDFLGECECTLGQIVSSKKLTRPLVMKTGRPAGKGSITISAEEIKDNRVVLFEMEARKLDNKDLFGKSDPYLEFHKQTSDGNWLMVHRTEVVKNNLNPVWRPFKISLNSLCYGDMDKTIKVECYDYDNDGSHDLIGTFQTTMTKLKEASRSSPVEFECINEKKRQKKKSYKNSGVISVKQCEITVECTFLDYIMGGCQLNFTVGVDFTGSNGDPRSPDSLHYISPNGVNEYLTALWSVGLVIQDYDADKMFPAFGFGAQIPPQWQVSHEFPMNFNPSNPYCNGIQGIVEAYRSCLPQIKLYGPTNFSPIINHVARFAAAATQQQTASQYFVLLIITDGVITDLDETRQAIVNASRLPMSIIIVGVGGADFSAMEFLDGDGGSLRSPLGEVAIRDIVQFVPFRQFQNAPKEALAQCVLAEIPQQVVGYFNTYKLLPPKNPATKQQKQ
# The entries are a selection whose mix differs from that of the whole data set.
# Compound: COC(=O)C#Cc1ccccc1 [methyl 3-phenylpropiolate]
# Experiment: log2 ratio of iodoacetamide-alkyne labeling of the cysteine site, DMSO over compound (competition); higher = stronger covalent engagement of the cysteine by the compound, active = 1 or more
# Details: 500 µM; treatment time 1 h; system: HEK293T cell lysate
# Procedure, shortened: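 HEK293T lysate at 2 mg/mL was treated with vehicle or electrophile (500 µM) for 1 h at ambient temperature, then labelled with iodoacetamide alkyne (1 h), clicked to sCIP-TMT reagents, pooled, digested with trypsin overnight at 37 °C, enriched on streptavidin and eluted with acid. Peptides were analysed by Orbitrap Eclipse LC-MS/MS with FAIMS and quantified in FragPipe, using duplicate channels and three replicates, with cysteines quantified in only one replicate excluded. The log2 competition ratio for each cysteine is the mean control-channel reporter intensity divided by the mean compound-channel reporter intensity.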
row,Target,log2 ratio of iodoacetamide-alkyne labeling
1,UniProt O43776_C452,inactive: 0.223
2,VPS4B C240 (UniProt O75351),inactive: 0.188
3,SNX2 C413 (UniProt O60749),inactive: 0.162
4,RSL1D1 C96 (UniProt O76021),inactive: 0.846
5,GLRX3 C146 (UniProt O76003),inactive: 0.0419
6,PLOD3 C691 (UniProt O60568),inactive: 0.786
7,EIF5B C853 (UniProt O60841),active: 1
8,FLNB C455 (UniProt O75369),active: 1.24
9,UniProt O43776_C537,inactive: 0.106
10,MCM3AP C274 (UniProt O60318),inactive: 0.243
11,RECQL5 C457 (UniProt O94762),inactive: 0.793
12,ANKRD17 C1622 (UniProt O75179),inactive: 0.196
13,PLOD3 C494 (UniProt O60568),inactive: 0.194
14,CPNE3 C5 (UniProt O75131),inactive: 0.13
15,ZC3H11A C636 (UniProt O75152),inactive: 0.591

# Random excerpt: two entries already listed.
row,Target,log2 ratio of iodoacetamide-alkyne labeling
4,RSL1D1 C96 (UniProt O76021),inactive: 0.846
12,ANKRD17 C1622 (UniProt O75179),inactive: 0.196
